{"source": "PubChem BioAssay AID1159584 (Peter MacCallum Cancer Centre, 2016)", "screen": "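Knock-downs that harm CDH1-null cells more than parental MCF10A cells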 (primary screen)", "cell system": "human MCF10A breast epithelial cells, parental and CDH1-null", "reagent": "siRNA against human genes", "measured": "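ATP luminescence (CellTiter-Glo) viability per line relative to mean mock wells over all plates, and the ratio of CDH1-null to parental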", "scale": "CDH1-null / parental viability ratio: higher = CDH1-null cells survive relatively better than parental", "note": "The deposit covers about 18,000 reagents; this is a random part of them. Further read-outs or replicates are left out here. Reagent sequences are not shown. Not given: the amount of reagent, the time to read-out."}
{"target gene": "ZNF826P", "CDH1-null / parental viability ratio": 1.11}
{"target gene": "GINS3", "CDH1-null / parental viability ratio": 1}
{"target gene": "CIMIP7", "CDH1-null / parental viability ratio": 1}
{"target gene": "CLEC12A", "CDH1-null / parental viability ratio": 0.99}
{"target gene": "TAS1R3", "CDH1-null / parental viability ratio": 1.06}
{"target gene": "XKRY", "CDH1-null / parental viability ratio": 1.16}
{"target gene": "DENND2B", "CDH1-null / parental viability ratio": 1.19}
{"target gene": "LRRC75B", "CDH1-null / parental viability ratio": 0.91}
{"target gene": "ERO1B", "CDH1-null / parental viability ratio": 1.11}
{"target gene": "MNDA", "CDH1-null / parental viability ratio": 1.15}
{"target gene": "GDI2", "CDH1-null / parental viability ratio": 0.95}
{"target gene": "RAB17", "CDH1-null / parental viability ratio": 1.19}
{"target gene": "DCAF5", "CDH1-null / parental viability ratio": 0.92}
{"target gene": "C2CD4B", "CDH1-null / parental viability ratio": 0.79}
{"target gene": "ASB18", "CDH1-null / parental viability ratio": 1.03}
{"target gene": "PSMG3", "CDH1-null / parental viability ratio": 0.92}
{"target gene": "RPL21", "CDH1-null / parental viability ratio": 1}
{"target gene": "OAT", "CDH1-null / parental viability ratio": 0.99}
{"target gene": "B4GALNT3", "CDH1-null / parental viability ratio": 0.9}
{"target gene": "PSMD7", "CDH1-null / parental viability ratio": 1.21}
{"target gene": "EVX1", "CDH1-null / parental viability ratio": 1}
{"target gene": "SLC35H1", "CDH1-null / parental viability ratio": 0.77}
{"target gene": "SNX10", "CDH1-null / parental viability ratio": 1.2}
{"target gene": "ST6GALNAC4", "CDH1-null / parental viability ratio": 1.08}
{"target gene": "ZNF800", "CDH1-null / parental viability ratio": 0.74}
{"target gene": "CD48", "CDH1-null / parental viability ratio": 1.07}
{"target gene": "PPFIA1", "CDH1-null / parental viability ratio": 1.46}
{"target gene": "NDUFB1", "CDH1-null / parental viability ratio": 0.9}
{"target gene": "CACTIN", "CDH1-null / parental viability ratio": 1.35}
{"target gene": "B4GALNT1", "CDH1-null / parental viability ratio": 1.14}
{"target gene": "PRR3", "CDH1-null / parental viability ratio": 1.08}
{"target gene": "MTMR14", "CDH1-null / parental viability ratio": 1.51}
{"target gene": "CYP26A1", "CDH1-null / parental viability ratio": 1.13}
{"target gene": "AWAT2", "CDH1-null / parental viability ratio": 0.69}
{"target gene": "PLA2G7", "CDH1-null / parental viability ratio": 1.02}
{"target gene": "PFN2", "CDH1-null / parental viability ratio": 1.08}
{"target gene": "ENO1", "CDH1-null / parental viability ratio": 0.84}
{"target gene": "PPM1B", "CDH1-null / parental viability ratio": 1.6}
{"target gene": "ACY3", "CDH1-null / parental viability ratio": 0.98}
{"target gene": "ZBTB14", "CDH1-null / parental viability ratio": 1}
{"target gene": "IDH1", "CDH1-null / parental viability ratio": 1.15}
{"target gene": "KRTAP4-7", "CDH1-null / parental viability ratio": 1.15}
{"target gene": "GNAI3", "CDH1-null / parental viability ratio": 0.96}
{"target gene": "SCO2", "CDH1-null / parental viability ratio": 1.09}
{"target gene": "CELA2B", "CDH1-null / parental viability ratio": 1.18}
